PubChem BioAssay AID1053208 – Peter MacCallum Cancer Centre – 2014
Aim: 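Find knock-downs that sensitise mouse osteosarcoma cells to doxorubicin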 (primary screen). System: mouse osteosarcoma cells, early-passage culture from an engineered mouse model of fibroblastic bone tumour. Reagent: siRNA pool against mouse genes, 40 nM. Duration: about 120 h (48 h before drug, then 72 h with drug). Challenge: doxorubicin 100 nM for 72 h, roughly 30-40% inhibitory dose. Read-out: 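Luminescent ATP signal taken as viability with or without 100 nM doxorubicin for 72 h; mean of two wells set against non-targeting siRNA and turned into robust z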. Reading the numbers: viability z-score with doxorubicin: higher = more viable cells under doxorubicin; viability z-score without drug: higher = more viable cells with knock-down alone. Call rule: 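Called active if knock-down leaves viability unchanged without drug (z within -2 to 2) but lowers it with doxorubicin (z at or under -2)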.
This is a random part of about 17,000 deposited reagents. 788 of them (4.7%) were called active. 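Calls rest on z-score classes alone; an extra cut-off of viability at most 70% of control was not applied to them.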 Entries without a mark were called inactive. Further read-outs or replicates are left out here.

The first 2 records, to show the layout:
| target gene | combined z-score class | viability z-score with doxorubicin | viability z-score without drug |
| --- | --- | --- | --- |
| Fam221a | no change with or without drug | -0.45 | 0.51 |
| Hmbox1 | no change with or without drug | 1.57 | 0.51 |

The listing, from the start:
| target gene | combined z-score class | viability z-score with doxorubicin | viability z-score without drug |
| --- | --- | --- | --- |
| Fam221a | no change with or without drug | -0.45 | 0.51 |
| Hmbox1 | no change with or without drug | 1.57 | 0.51 |
| H2az1 | high cell count with doxorubicin only | 2.36 | 1.52 |
| Tle5 | no change with or without drug | -0.67 | -0.17 |
| Agfg1 | no change with or without drug | -0.22 | -0.17 |
| Phox2b | no change with or without drug | 0.11 | -0.17 |
| Tcam1 | no change with or without drug | 1.57 | 0.34 |
| Mindy1 | no change with or without drug | -1.57 | 0 |
| Zgpat | no change with or without drug | 0 | 0.17 |
| Ifih1 | no change with or without drug | -0.22 | -0.84 |
| Ngly1 | no change with or without drug | 0.79 | 1.52 |
| Or9a4 | no change with or without drug | -1.35 | -0.34 |
| Igsf21 | no change with or without drug | 1.57 | 0 |
| H2-DMb2 | no change with or without drug | -0.9 | -1.35 |
| Cacybp | no change with or without drug | 0.9 | 1.35 |
| F2rl1 | no change with or without drug | 0 | -0.17 |
| Epor | no change with or without drug | 0.22 | 0.34 |
| Hat1 | no change with or without drug | -1.01 | 0.17 |
| Pou4f2 | no change with or without drug | 1.35 | 0.17 |
| Ugt3a1 | no change with or without drug | 0.45 | 1.18 |
